US20210379068A1, “METHODS AND MATERIALS FOR TREATING NEUROPSYCHIATRIC DISORDERS” (Mayo Foundation for Medical Education and Research, priority 2018, published 2021)
“Also recorded” adds a separate entry of the source.

What was measured:
Format in all cases: in vivo, mouse
[1] = Body mass and body composition, INK-ATTAC;db/db mice treated with AP20187; conditions: AP20187 vs vehicle, 2 months
Experimental: INK-ATTAC mice were injected intraperitoneally (i.p.) with AP20187 (10 mg/kg) or vehicle for 3 days every 2 weeks for a total of 8-10 weeks.
(§1) Lean and fat mass of individual mice were determined by quantitative nuclear magnetic resonance using an EchoMRT analyser (Houston, Tex.) and expressed as a function of body weight. Un-anesthetized animals were placed in a plastic tube that was introduced into the EchoMRT instrument. Body composition, comprising fat mass and lean mass, was determined in approximately 90 seconds per animal.

[2] = Body weight and body fat, HFD mice treated with Reparixin; conditions: HFD C57BL/6 mice; Reparixin 30 mg/kg s.c. twice per day for 2 weeks
Experimental: Reparixin L-lysine salt (MedChemExpress, #HY-15252) or L-Lysine hydrochloride (MedChemExpress, #HY-N0470) was dissolved in H2O was administered to obese C57BL/6 mice (fed for 2 months with high-fat diet) via subcutaneous injection (30 mg/kg) twice per day for 2 weeks. 2 hours after the last injection mice were tested in open field and elevated plus maze and afterwards dissected. Lean and fat mass of individual mice were determined by quantitative nuclear magnetic resonance using an EchoMRT analyser (Houston, Tex.) and expressed as a function of body weight. Un-anesthetized animals were placed in a plastic tube that was introduced into the EchoMRT instrument. Body composition, comprising fat mass and lean mass, was determined in approximately 90 seconds per animal.

[3] = Body weight and body composition after Cxcl1 injection; conditions: lean C57BL/6, Cxcl1 5 μg/kg i.p. daily for 7 days
Experimental: Recombinant CXCL1 (Peprotech, #250-11) or vehicle (PBS) was administered to lean C57BL/6 via i.p. injection (5 μg/kg in PBS) daily for 7 days. 2 hours after the last injection mice were tested in open field and elevated plus maze and afterwards dissected.
as §1

For CC[C@H](C(=O)N1CCCC[C@H]1C(=O)O[C@H](CCc1ccc(OC)c(OC)c1)c1cccc(OCC(=O)NCC(CNC(=O)COc2cccc([C@@H](CCc3ccc(OC)c(OC)c3)OC(=O)[C@@H]3CCCCN3C(=O)[C@@H](CC)c3cc(OC)c(OC)c(OC)c3)c2)CN(C)C)c1)c1cc(OC)c(OC)c(OC)c1 [AP], the body composition [1] was “No changes; also recorded: did not alter” and the body mass [1] was “No changes; also recorded: did not alter”.

With CC(C)Cc1ccc([C@@H](C)C(=O)NS(C)(=O)=O)cc1 [Reparixin] the body fat [2] was “no alterations; also recorded: no difference” and the body weight [2] was “small increase”.

B1: Cxcl1: Recombinant CXCL1 (Peprotech, #250-11) injected i.p. into lean mice (protein, UniProt P12850 25-96, looked up)
Growth-regulated alpha protein: APIANELRCQCLQTMAGIHLKNIQSLKVLPSGPHCTQTEVIATLKNGREACLDPEAPLVQKIVQKMLKGVPK
With B1 the “body composition (body fat)” value [3] was “did not change”, the body weight [3] was “decreased slightly” and the “body composition (body fat)” value ([3]; listed as Cxcl-1) was “did not experience changes”. For the same molecule, the body weight ([3]; listed as Cxcl-1) was “lost weight”.
